Measurements taken from the supplement of paper PMC7125110.
± gives the standard error. Many entries were measured with a wide error.

B1: glmS ribozyme (parent)
chain: AUAAAAGCGCCAGAACUACAGAAAUGUAGUUGACGAGGAGGAGGUUUAUCGAAUUUUCGGCGGAUGCCUCCAAA

Variants of: B1
Experiment: KM; higher = weaker cofactor use; RNA array
Details: with glucosamine-6-phosphate
Method in brief: (§1)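 E. coli RNA polymerase transcribed barcoded ribozyme variants in situ on sequenced MiSeq chips, which were tracked via a hybridised Cy3 probe at 37 °C. Tiles were imaged over ~14 h after glucosamine-6-phosphate (40 μM to 10 mM) in HEPES/KCl/Mg(OAc)2 buffer was flowed in. Normalised per-tile medians were fit to one- or two-exponential decays for kobs, and kcat and KM came from weighted Michaelis–Menten fits.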

| Variant | KM |
| --- | --- |
| G40A U45G | 58.1 ± 46 µM |
| G44C U47G G66U C67G | 2230 ± 1300 µM |
| G41A C71A | 645 ± 210 µM |
| U55C C68U | 397 ± 270 µM |
| G66U U69A | 493 ± 290 µM |
| A53U A64G | 1970 ± 260 µM |
| G41U C70U | 39.4 ± 20 µM |
| U47A A52U | 2690 ± 570 µM |
| A64U C67U | 638 ± 430 µM |
| U49G U65A | 3310 ± 1900 µM |
| U56A U69A | 85.5 ± 69 µM |
| U46C C70G | 1060 ± 650 µM |
| U46C C70U | 2770 ± 1500 µM |
| U46C C70A | 685 ± 430 µM |
| G40C C67A | 603 ± 410 µM |
| C50G C67A | 32.5 ± 20 µM |
| U47C U56G | 1580 ± 540 µM |
| U47C U56A | 2640 ± 1700 µM |
| G44U U56G | 3010 ± 1100 µM |
| G59A C61G | 34.3 ± 22 µM |
| C58A U65C | 5030 ± 1300 µM |
| G40A C70G | 1280 ± 660 µM |
| G43U C68G | 527 ± 180 µM |
| U57A G66U | 635 ± 350 µM |
| U57A G66A | 4040 ± 1400 µM |

Looked up one by one from the entries so far (4):

| Variant | KM |
| --- | --- |
| A53U A64G | 1970 ± 260 µM |
| U56A U69A | 85.5 ± 69 µM |
| U47A A52U | 2690 ± 570 µM |
| C50G C67A | 32.5 ± 20 µM |

Later entries:

| Variant | KM |
| --- | --- |
| G41A U55G | 229 ± 130 µM |
| A52U U69C | 1990 ± 540 µM |
| U45A A64G | 600 ± 260 µM |
| U45A A64C | 2520 ± 570 µM |
| A52G A53U | 1900 ± 430 µM |
| G41U A53G | 291 ± 120 µM |
| C58A U69C | 640 ± 220 µM |
| G40A U47A | 1440 ± 270 µM |
| U55C C70U | 5960 ± 3000 µM |
| G44A U46G | 979 ± 500 µM |
| G41C U47G | 50700 ± 23000 µM |
| U65A C70G | 66.3 ± 25 µM |
| U47A G66U | 1780 ± 480 µM |
| G44C C50A | 105 ± 18 µM |
| U57C C58G | 1320 ± 950 µM |
| U47C U57C | 890 ± 540 µM |
| C50G C71U | 28.8 ± 24 µM |
| U55A U65C | 1160 ± 230 µM |
| G40A U46A | 1860 ± 1100 µM |
| G41U C68U | 32200 ± 7100 µM |
| U54C A64G | 1100 ± 570 µM |
| U54C A64C | 3560 ± 1000 µM |
| G40U C67A | 962 ± 960 µM |
| G51A G59U | 157 ± 36 µM |
| U45G U55G | 2970 ± 1000 µM |

| Variant | KM |
| --- | --- |
| C61U C67A | 147 ± 110 µM |
| G41U U56A C70A | 1590 ± 970 µM |
| G41A A53U U54G | 357 ± 330 µM |
| G40U U65G G66U | 561 ± 460 µM |
| A52G C71U | 3440 ± 380 µM |
| U46A C67U | 2370 ± 780 µM |
| U55G U57C | 4830 ± 1100 µM |
| U47C A52C | 3020 ± 290 µM |
| G41U A42G | 1240 ± 450 µM |
| C67A C71G | 62.7 ± 45 µM |
| G44U C70U | 861 ± 820 µM |
| G43U U65G | 2380 ± 190 µM |
| G66U C70U | 1830 ± 590 µM |
| C67A | 1730 ± 380 µM |
| C67G | 2390 ± 300 µM |
| G41A A53C | 1730 ± 1200 µM |
| U49C C71A | 362 ± 350 µM |
| A39U C71G | 3300 ± 1600 µM |
| G41U U45C | 1140 ± 210 µM |
| A53C U57G | 2470 ± 1700 µM |
| G41U U55A | 170 ± 100 µM |
| G59A C68U | 446 ± 360 µM |
| C58G A64G | 1800 ± 1100 µM |
| U45A C58A | 3370 ± 1700 µM |

Variants of: B1
Experiment: self-cleavage kobs at 2500 uM GlcN6P; higher = faster cleavage; RNA array
Details: with glucosamine-6-phosphate
Method in brief: as §1

| Variant | self-cleavage kobs at 2500 uM GlcN6P |
| --- | --- |
| U55C C68U | 2.74e-05 ± 1.5e-05 s⁻¹ |
| C58A U65C | 2.25e-05 ± 1.9e-05 s⁻¹ |
| U45A A64G | 0.0536 ± 0.032 s⁻¹ |
| G43U U65G | 2.27e-05 ± 1.7e-05 s⁻¹ |
| G59A C68U | 1.35e-05 ± 1.2e-05 s⁻¹ |

Variants of: B1
Experiment: self-cleavage kobs at 640 uM GlcN6P; higher = faster cleavage; RNA array
Details: with glucosamine-6-phosphate
Method in brief: as §1

| Variant | self-cleavage kobs at 640 uM GlcN6P |
| --- | --- |
| A64U C67U | 2.03e-05 ± 1.3e-05 s⁻¹ |

Variants of: B1
Experiment: self-cleavage kobs at 10000 uM GlcN6P; higher = faster cleavage; RNA array
Details: with glucosamine-6-phosphate
Method in brief: as §1

| Variant | self-cleavage kobs at 10000 uM GlcN6P |
| --- | --- |
| U49G U65A | 1.68e-05 ± 1.4e-05 s⁻¹ |
| U57A G66U | 1.96e-05 ± 1.3e-05 s⁻¹ |
| C50G C71U | 0.000765 ± 0.00055 s⁻¹ |
| G41U C68U | 1.23e-05 ± 7.7e-06 s⁻¹ |
| U47C A52C | 3.09e-05 ± 1.9e-05 s⁻¹ |
| G59A C68U | 1.54e-05 ± 8.3e-06 s⁻¹ |

Variants of: B1
Experiment: self-cleavage kobs at 40 uM GlcN6P; higher = faster cleavage; RNA array
Details: with glucosamine-6-phosphate
Method in brief: as §1

| Variant | self-cleavage kobs at 40 uM GlcN6P |
| --- | --- |
| G40A C70G | 2.41e-05 ± 2.3e-05 s⁻¹ |
| G41A U55G | 2.58e-05 ± 1.7e-05 s⁻¹ |
| U65A C70G | 2.29e-05 ± 1.2e-05 s⁻¹ |
| U55A U65C | 2.09e-05 ± 1.7e-05 s⁻¹ |
| C67A C71G | 1.76e-05 ± 1.2e-05 s⁻¹ |
| U45A C58A | 3.26e-05 ± 3.2e-05 s⁻¹ |

Variants of: B1
Experiment: self-cleavage kobs at 160 uM GlcN6P; higher = faster cleavage; RNA array
Details: with glucosamine-6-phosphate
Method in brief: as §1

| Variant | self-cleavage kobs at 160 uM GlcN6P |
| --- | --- |
| G40A C70G | 2.43e-05 ± 1.6e-05 s⁻¹ |
| G40A U46A | 2.53e-05 ± 1.7e-05 s⁻¹ |
| A53C U57G | 1.93e-05 ± 1.3e-05 s⁻¹ |
| U45A C58A | 3.34e-05 ± 2.1e-05 s⁻¹ |
